The target of experiment [1] is T1, Taf6, subunit of Komagataella phaffii TFIID (Komagataella phaffii) (UniProt F2QMA7).
T1 sequence: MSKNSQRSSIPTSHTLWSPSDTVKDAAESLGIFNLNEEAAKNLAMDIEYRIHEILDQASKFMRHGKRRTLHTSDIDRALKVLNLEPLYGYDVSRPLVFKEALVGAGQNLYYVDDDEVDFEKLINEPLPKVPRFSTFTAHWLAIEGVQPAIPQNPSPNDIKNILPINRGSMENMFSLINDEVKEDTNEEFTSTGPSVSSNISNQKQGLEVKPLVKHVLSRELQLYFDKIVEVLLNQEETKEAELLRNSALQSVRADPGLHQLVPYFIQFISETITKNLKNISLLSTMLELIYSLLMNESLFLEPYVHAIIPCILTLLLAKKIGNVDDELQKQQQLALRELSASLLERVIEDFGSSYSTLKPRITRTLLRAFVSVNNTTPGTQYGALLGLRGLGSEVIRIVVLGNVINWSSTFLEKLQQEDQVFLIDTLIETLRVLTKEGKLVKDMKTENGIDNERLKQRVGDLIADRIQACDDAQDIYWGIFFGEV
In words: cross-linking; 50 µg purified TFIID, 3 mM BS3, 2 h at 25 °C; trypsin, SCX fractionation, Orbitrap Fusion MS; pLink and Nexus, 5% FDR; both purified.

Experiment [2] deals with T1, Taf6, subunit of Komagataella phaffii TFIID (Komagataella phaffii). In words: cryo-EM structure; purified TFIID (0.4 µM) with two-fold excess of TFIIA and 2.5–3-fold excess of pGAP promoter DNA, cross-linked with 0.1% glutaraldehyde; focused refinement of the lobes (Taf2 lobe 4.5 Å, Twin lobe 4.8 Å); homology models docked; both purified.
Experiment [3] concerns the target T2, Taf5, subunit of Komagataella phaffii TFIID (Komagataella phaffii) (UniProt F2QWD3).
T2 sequence: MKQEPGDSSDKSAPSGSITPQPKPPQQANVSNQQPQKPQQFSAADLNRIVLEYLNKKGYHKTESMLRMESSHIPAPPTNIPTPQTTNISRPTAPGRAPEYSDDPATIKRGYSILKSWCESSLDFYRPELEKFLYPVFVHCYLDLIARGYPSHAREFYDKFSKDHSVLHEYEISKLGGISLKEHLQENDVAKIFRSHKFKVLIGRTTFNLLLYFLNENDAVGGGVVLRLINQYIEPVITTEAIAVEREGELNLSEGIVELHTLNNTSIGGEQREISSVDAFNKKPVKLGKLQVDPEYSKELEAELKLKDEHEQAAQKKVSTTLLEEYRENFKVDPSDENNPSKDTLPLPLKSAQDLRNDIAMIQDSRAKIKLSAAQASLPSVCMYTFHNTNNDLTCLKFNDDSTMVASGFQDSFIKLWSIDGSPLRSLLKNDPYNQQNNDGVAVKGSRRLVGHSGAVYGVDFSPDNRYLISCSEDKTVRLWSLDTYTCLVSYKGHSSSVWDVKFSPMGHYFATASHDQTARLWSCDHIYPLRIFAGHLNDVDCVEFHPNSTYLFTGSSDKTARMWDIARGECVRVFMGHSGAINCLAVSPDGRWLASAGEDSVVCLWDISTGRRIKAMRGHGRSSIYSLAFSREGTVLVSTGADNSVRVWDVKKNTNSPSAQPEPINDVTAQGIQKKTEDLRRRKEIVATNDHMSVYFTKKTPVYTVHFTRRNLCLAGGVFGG
In words: cross-linking; 50 µg purified TFIID, 3 mM BS3, 2 h at 25 °C; trypsin, SCX fractionation, Orbitrap Fusion MS; pLink and Nexus, 5% FDR; both purified.

For experiment [4], the target named is T2, Taf5, subunit of Komagataella phaffii TFIID (Komagataella phaffii). In words: cryo-EM structure; purified TFIID (0.4 µM) with two-fold excess of TFIIA and 2.5–3-fold excess of pGAP promoter DNA, cross-linked with 0.1% glutaraldehyde; focused refinement of the lobes (Taf2 lobe 4.5 Å, Twin lobe 4.8 Å); homology models docked; both purified.
The target of experiment [5] is T3, Taf12, subunit of Komagataella phaffii TFIID (Komagataella phaffii) (UniProt F2QSK7).
T3 sequence: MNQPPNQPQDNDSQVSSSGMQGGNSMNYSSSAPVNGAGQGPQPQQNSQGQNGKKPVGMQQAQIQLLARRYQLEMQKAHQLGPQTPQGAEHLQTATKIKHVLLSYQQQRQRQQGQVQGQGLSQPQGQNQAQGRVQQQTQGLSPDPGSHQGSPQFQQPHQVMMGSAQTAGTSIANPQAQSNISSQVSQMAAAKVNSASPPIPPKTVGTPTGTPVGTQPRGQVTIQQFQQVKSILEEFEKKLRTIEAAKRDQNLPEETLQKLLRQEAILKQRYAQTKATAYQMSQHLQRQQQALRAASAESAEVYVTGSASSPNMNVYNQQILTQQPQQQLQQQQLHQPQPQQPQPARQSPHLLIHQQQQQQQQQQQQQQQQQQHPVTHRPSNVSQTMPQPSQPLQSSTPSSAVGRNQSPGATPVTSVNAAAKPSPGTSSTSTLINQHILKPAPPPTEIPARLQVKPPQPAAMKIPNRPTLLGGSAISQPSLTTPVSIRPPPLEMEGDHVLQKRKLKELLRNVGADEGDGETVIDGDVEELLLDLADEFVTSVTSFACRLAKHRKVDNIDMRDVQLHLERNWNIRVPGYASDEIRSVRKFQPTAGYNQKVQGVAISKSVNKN
In words: cross-linking; 50 µg purified TFIID, 3 mM BS3, 2 h at 25 °C; trypsin, SCX fractionation, Orbitrap Fusion MS; pLink and Nexus, 5% FDR; both purified.

Experiment [6] addresses T4, Taf9, subunit of Komagataella phaffii TFIID (Komagataella phaffii) (UniProt F2QTW3).
T4 sequence: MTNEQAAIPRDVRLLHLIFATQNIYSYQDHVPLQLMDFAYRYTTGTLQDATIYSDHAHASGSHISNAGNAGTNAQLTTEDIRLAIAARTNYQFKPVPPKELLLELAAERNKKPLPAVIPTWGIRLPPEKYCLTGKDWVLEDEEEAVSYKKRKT
Described as above.

The target of experiment [7] is T5, Taf11, subunit of Komagataella phaffii TFIID (Komagataella phaffii) (UniProt F2QRB1).
T5 sequence: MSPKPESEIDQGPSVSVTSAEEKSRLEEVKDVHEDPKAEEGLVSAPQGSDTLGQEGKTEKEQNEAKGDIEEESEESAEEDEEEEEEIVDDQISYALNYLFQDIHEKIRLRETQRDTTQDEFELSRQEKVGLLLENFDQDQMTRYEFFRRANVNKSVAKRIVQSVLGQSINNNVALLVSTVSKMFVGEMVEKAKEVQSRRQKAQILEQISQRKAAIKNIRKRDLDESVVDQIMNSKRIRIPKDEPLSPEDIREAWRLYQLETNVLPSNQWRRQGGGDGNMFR
The experiment is described as above.

In experiment [8] the target is T6, Taf4, subunit of Komagataella phaffii TFIID (Komagataella phaffii) (UniProt F2QWX2).
T6 sequence: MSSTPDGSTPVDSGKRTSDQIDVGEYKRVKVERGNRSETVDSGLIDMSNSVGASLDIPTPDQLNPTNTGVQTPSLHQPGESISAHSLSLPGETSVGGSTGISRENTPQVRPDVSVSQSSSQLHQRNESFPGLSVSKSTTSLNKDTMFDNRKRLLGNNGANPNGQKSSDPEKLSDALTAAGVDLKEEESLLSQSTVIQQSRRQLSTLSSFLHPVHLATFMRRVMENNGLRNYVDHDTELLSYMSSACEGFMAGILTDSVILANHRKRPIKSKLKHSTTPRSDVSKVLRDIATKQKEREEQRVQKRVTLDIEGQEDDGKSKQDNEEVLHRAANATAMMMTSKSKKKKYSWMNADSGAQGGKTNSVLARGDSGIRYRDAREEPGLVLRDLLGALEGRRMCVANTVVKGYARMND
Described as above.

These are yes or no findings as the source states them, for the method shown. Some entries that bind do so weakly or less than the wild type.

B1: Taf9, subunit of Komagataella phaffii TFIID (natural protein, UniProt F2QTW3 1-153, looked up)
chain: T4 sequence
notes: Taf9, TFIID subunit of the yeast Komagataella phaffii (formerly Pichia pastoris); histone-fold domain modelled in the cryo-EM map; source: endogenous, K. phaffii nuclear extract; co-purified in TFIID by SBP-tagged Taf2 (streptavidin beads, sucrose gradient)
For B1, the binding entry in experiment [1] and in experiment [2] was “binds” throughout.

B2: Taf6, subunit of Komagataella phaffii TFIID (natural protein, UniProt F2QMA7 1-485, looked up)
chain: T1 sequence
notes: Taf6, TFIID subunit of the yeast Komagataella phaffii (formerly Pichia pastoris); HEAT repeats (residues 213–486) and histone-fold domain modelled in the cryo-EM map; two copies in holo-TFIID; source: endogenous, K. phaffii nuclear extract; co-purified in TFIID by SBP-tagged Taf2 (streptavidin beads, sucrose gradient)
For the molecule B2, the binding entry in experiment [3] and in experiment [4] was “binds” throughout.

B3: Taf13, subunit of Komagataella phaffii TFIID (protein, UniProt A0A1G4KP49 1-139)
chain: MSRKPERRRQPRLFSNDMRTLLFAYGDVQQPQLETIQALEDVMIVFMTDLCHEAMTYATYQGRKHKLKMEDFKFALRKDRLKLGRVEELMNKQKEIQEARKLFDSNEKETKDDDIEKKRRKEAKRAIKEAKKLKLSKGD
Regarding B3, the binding entry in experiment [5], in experiment [6], in experiment [7], in experiment [3], in experiment [8] and in experiment [1] was “binds” throughout.

B4: Taf8, subunit of Komagataella phaffii TFIID (natural protein, UniProt F2QT15 1-517, looked up)
chain: MADKSDDNQSLVSVSSASSGKENPNSVGQRSMNPTLSHEEQHDQEVQERYNTGKDLNITSQPECVPAMEVALKASVLLILSSLGVQASSLSIDHLTYITTKYIDRLVSELHRSTEIQRRRTIAKRDVQLVVDRGILDLEDVTLEYERLKLTRKRVKPSIEKLSKYASELKESASSVQVSENDKDAFFFFDIAEKISEFMPLRMKRKNYIPKWMPVLPPEHTYVATPQFTEVISDPKELREQLTAESRLGEKALQHLIGTKIVEDKKEDVGNENDNDIDKEIHHGEIDVESDHNLEKGPNGETNGVQSQPPKSMVSSKRFDIVAHAKHRLSVLEKRKRHQEQLLENRRKEIDGLVGQYLGYYATKKIEPPVSDIIVNIMNTEYYHVSREISKSEHRKQKIQESQQLKRRKLEDELQQELEHQTEDIDFEFNFDEDDVDMNKNLNENLNENENDDEQVLIEEDTSFDITNGDIEKTNQETPFTNGSSKQWDSNNAILDSTNSEPEPEPPIADLFNVDSS
notes: Taf8, TFIID subunit of the yeast Komagataella phaffii (formerly Pichia pastoris); putative helices placed in the cryo-EM map; also called KpTaf8; source: endogenous, K. phaffii nuclear extract; co-purified in TFIID by SBP-tagged Taf2 (streptavidin beads, sucrose gradient)
For the molecule B4, the binding entry in experiment [1] and in experiment [2] was “binds” each time.

B5: Taf11, subunit of Komagataella phaffii TFIID (natural protein, UniProt F2QRB1 1-281, looked up)
chain: T5 sequence
notes: Taf11, TFIID subunit of the yeast Komagataella phaffii (formerly Pichia pastoris); histone-fold domain modelled in the cryo-EM map; source: endogenous, K. phaffii nuclear extract; co-purified in TFIID by SBP-tagged Taf2 (streptavidin beads, sucrose gradient)
For the molecule B5, in experiment [1], the binding result is reported as “binds”.

The record behind these values is paper PMC6220335, “Molecular structure of promoter-bound yeast TFIID” (Nature Communications, 2018).
